Cleaved PARP in drug-treated melanoma cells

Source: doi:10.1371/journal.pone.0140310, primary screening data, rounded.

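Human melanoma cells were exposed to a pair of drugs for 72 h in 1,536-well plates and read by automated microscopy after fixing and staining. The read-out is the fraction of cleaved-PARP-positive nuclei, in % of that fraction in the DMSO control; 200 means twice the control level of this apoptosis marker. Every drug was used at one fixed concentration, the higher of two screened. These are primary screening values without error estimates. Basal and induced levels differ widely between cell lines.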 This is part of the screen, not chosen by result.

Compounds and concentrations:
tamatinib, 2 µM: COc1cc(Nc2ncc(F)c(Nc3ccc4c(n3)NC(=O)C(C)(C)O4)n2)cc(OC)c1OC
darinaparsin, 2 µM: C[As](C)SC[C@H](NC(=O)CC[C@H](N)C(=O)O)C(=O)NCC(=O)O
OSI-906, 2 µM: C[C@]1(O)C[C@@H](c2nc(-c3ccc4ccc(-c5ccccc5)nc4c3)c3c(N)nccn32)C1
T0901317, 7 µM: O=S(=O)(c1ccccc1)N(CC(F)(F)F)c1ccc(C(O)(C(F)(F)F)C(F)(F)F)cc1
midostaurin, 0.4 µM: CO[C@@H]1[C@H](N(C)C(=O)c2ccccc2)C[C@H]2O[C@]1(C)n1c3ccccc3c3c4c(c5c6ccccc6n2c5c31)C(=O)NC4
SU6656, 2 µM: CN(C)S(=O)(=O)c1ccc2c(c1)/C(=C/c1cc3c([nH]1)CCCC3)C(=O)N2
fludarabine, 1 µM: Nc1nc(F)nc2c1ncn2[C@@H]1O[C@H](CO)[C@@H](O)[C@@H]1O
crizotinib, 1 µM: C[C@@H](Oc1cc(-c2cnn(C3CCNCC3)c2)cnc1N)c1c(Cl)ccc(F)c1Cl
nutlin-3, 0.5 µM: COc1ccc(C2=N[C@@H](c3ccc(Cl)cc3)[C@@H](c3ccc(Cl)cc3)N2C(=O)N2CCNC(=O)C2)c(OC(C)C)c1
KU-0063794, 0.1 µM: COc1ccc(-c2ccc3c(N4CCOCC4)nc(N4C[C@@H](C)O[C@@H](C)C4)nc3n2)cc1CO

| # | Drugs | WM1716 | A101D | WM451Lu | SK-MEL-5 | RVH-421 | RPMI-7951 | WM115 | WM3619 |
|---|---|---|---|---|---|---|---|---|---|
| 1 | tamatinib + KU-0063794 | 24.5 | 379 | 220 | 285 | 166 | 205 | 160 | 201 |
| 2 | SU6656 + KU-0063794 | 102 | 108 | 123 | 326 | 44.5 | 133 | 419 | 175 |
| 3 | T0901317 + nutlin-3 | 274 | 106 | 15.3 | 177 | 28.8 | 170 | 133 | 307 |
| 4 | SU6656 + nutlin-3 | 16.4 | 65.2 | 203 | 58.6 | 51.7 | 176 | 77.3 | 106 |
| 5 | nutlin-3 + tamatinib | 157 | 442 | 168 | 103 | 98.9 | 179 | 339 | 260 |
| 6 | crizotinib + fludarabine | 127 | 35.4 | 76.1 | 2590 | 100 | 191 | 148 | 127 |
| 7 | crizotinib + midostaurin | 630 | 123 | 69.5 | 166 | 332 | 54.6 | 569 | 154 |
| 8 | fludarabine + OSI-906 | 47.6 | 77.1 | 78.0 | 3420 | 193 | 30.2 | 127 | 148 |
| 9 | fludarabine + nutlin-3 | 149 | 85.1 | 79.3 | 2220 | 130 | 83.6 | 136 | 128 |
| 10 | SU6656 + fludarabine | 120 | 116 | 222 | 4170 | 65.0 | 134 | 115 | 99.0 |
| 11 | tamatinib + SU6656 | 830 | 388 | 168 | 194 | 128 | 887 | 519 | 138 |
| 12 | midostaurin + tamatinib | 1190 | 1310 | 104 | 131 | 84.3 | 822 | 245 | 197 |
| 13 | nutlin-3 + midostaurin | 273 | 229 | 87.4 | 48.0 | 131 | 168 | 352 | 172 |
| 14 | tamatinib + OSI-906 | 95.4 | 514 | 131 | 124 | 100 | 392 | 82.4 | 131 |
| 15 | darinaparsin + T0901317 | 133 | 259 | 226 | 248 | 123 | 71.7 | 241 | 122 |
| 16 | tamatinib + T0901317 | 178 | 376 | 109 | 206 | 74.4 | 327 | 106 | 315 |
| 17 | OSI-906 + crizotinib | 87.2 | 73.1 | 508 | 62.0 | 148 | 31.8 | 174 | 97.2 |
| 18 | KU-0063794 + OSI-906 | 104 | 88.2 | 103 | 377 | 36.8 | 103 | 242 | 120 |
| 19 | crizotinib + tamatinib | 86.6 | 134 | 115 | 79.6 | 188 | 137 | 196 | 120 |
| 20 | fludarabine + darinaparsin | 42.1 | 148 | 207 | 991 | 165 | 153 | 187 | 90.8 |
| 21 | tamatinib + fludarabine | 150 | 288 | 117 | 1260 | 55.1 | 492 | 103 | 122 |
| 22 | T0901317 + fludarabine | 95.9 | 414 | 251 | 1940 | 85.7 | 74.7 | 64.3 | 96.2 |
| 23 | T0901317 + midostaurin | 880 | 60.4 | 178 | 175 | 116 | 326 | 173 | 163 |
| 24 | SU6656 + crizotinib | 116 | 139 | 395 | 208 | 58.6 | 254 | 80.2 | 113 |
| 25 | midostaurin + darinaparsin | 252 | 152 | 53.5 | 190 | 180 | 94.8 | 202 | 132 |
| 26 | T0901317 + crizotinib | 202 | 124 | 49.0 | 179 | 130 | 166 | 237 | 109 |
| 27 | KU-0063794 + nutlin-3 | 71.4 | 155 | 59.2 | 232 | 214 | 94.2 | 116 | 116 |
| 28 | darinaparsin + nutlin-3 | 39.3 | 101 | 174 | 542 | 333 | 239 | 206 | 117 |
| 29 | KU-0063794 + darinaparsin | 32.3 | 45.2 | 237 | 92.7 | 89.9 | 266 | 130 | 213 |
| 30 | T0901317 + SU6656 | 80.3 | 91.2 | 21.1 | 141 | 63.7 | 277 | 245 | 121 |
| 31 | KU-0063794 + T0901317 | 108 | 156 | 82.7 | 189 | 117 | 77.8 | 103 | 157 |
| 32 | crizotinib + darinaparsin | 114 | 74.1 | 97.0 | 255 | 138 | 203 | 325 | 81.7 |
| 33 | midostaurin + SU6656 | 325 | 231 | 278 | 327 | 89.4 | 244 | 307 | 146 |
| 34 | OSI-906 + SU6656 | 54.0 | 88.2 | 150 | 235 | 375 | 574 | 199 | 136 |
| 35 | OSI-906 + darinaparsin | 170 | 65.8 | 54.8 | 189 | 82.4 | 112 | 212 | 104 |
| 36 | crizotinib + KU-0063794 | 197 | 124 | 201 | 192 | 124 | 187 | 149 | 136 |
| 37 | OSI-906 + nutlin-3 | 44.9 | 77.4 | 69.1 | 176 | 34.5 | 61.9 | 47.4 | 144 |
| 38 | midostaurin + fludarabine | 228 | 70.2 | 149 | 2870 | 77.2 | 100 | 229 | 107 |
| 39 | nutlin-3 + crizotinib | 107 | 98.7 | 85.8 | 185 | 84.2 | 50.8 | 377 | 77.9 |
| 40 | KU-0063794 + midostaurin | 273 | 161 | 230 | 61.1 | 116 | 202 | 235 | 197 |